Measured values: publication doi:10.1101/2023.08.07.552315 (bioRxiv, 2023)
These are yes or no findings as the source states them, for the method shown. A result given as binding can be weak or reduced; the word gives no strength.

T1: PMF1 (subunit of the Mis12 complex in the KMN cryo-EM sample) (human) (UniProt Q6P1K2)
T1 sequence: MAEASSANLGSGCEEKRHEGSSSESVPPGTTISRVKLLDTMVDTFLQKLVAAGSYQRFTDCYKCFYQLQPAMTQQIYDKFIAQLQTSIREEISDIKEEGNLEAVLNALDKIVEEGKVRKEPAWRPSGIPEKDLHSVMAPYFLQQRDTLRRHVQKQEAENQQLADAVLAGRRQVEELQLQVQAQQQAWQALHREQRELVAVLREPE

T2: DSN1 (subunit of the Mis12 complex in the KMN cryo-EM sample) (human) (UniProt Q9H410)
T2 sequence: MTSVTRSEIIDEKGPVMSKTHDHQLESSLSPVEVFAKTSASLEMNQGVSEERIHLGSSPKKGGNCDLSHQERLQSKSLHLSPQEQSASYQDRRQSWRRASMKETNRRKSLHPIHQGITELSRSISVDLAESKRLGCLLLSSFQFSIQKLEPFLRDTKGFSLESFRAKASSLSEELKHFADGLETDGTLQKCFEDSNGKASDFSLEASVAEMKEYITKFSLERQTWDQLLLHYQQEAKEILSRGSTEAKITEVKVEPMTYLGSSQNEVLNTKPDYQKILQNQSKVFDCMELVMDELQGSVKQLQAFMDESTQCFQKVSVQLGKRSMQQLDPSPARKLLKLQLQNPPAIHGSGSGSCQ


Key:
[1] = molecular target: T1, PMF1 (subunit of the Mis12 complex in the KMN cryo-EM sample) (human); assay: cryo-EM structure
[2] = molecular target: T2, DSN1 (subunit of the Mis12 complex in the KMN cryo-EM sample) (human); assay: cryo-EM structure
[3] = molecular target: KNL1 residues 2021-2342 (human); assay: SEC

Row | binding [1] | binding [2] | binding [3] | Molecule
1 | binds | binds | – | KNL1 residues 2021-2342 (human) (domain or fragment)
2 | – | – | binds | ZWINT (protein, UniProt O95229 1-277) MEAAETEAEAAALEVLAEVAGILEPVGLQEEAELPAKILVEFVVDSQKKDKLLCSQLQVADFLQNILAQEDTAKGLDPLASEDTSRQKAIAAKEQWKELKATYREHVEAIKIGLTKALTQMEEAQRKRTQLREAFEQLQAKKQMAMEKRRAVQNQWQLQQEKHLQHLAEVSAEVRERKTGTQQELDRVFQKLGNLKQQAEQERDKLQRYQTFLQLLYTLQGKLLFPEAEAEAENLPDDKPQQPTRPQEQSTGDTMGRDPGVSFKAVGLQPAGDVNLP
